Data as given in patent US20240150365A1 (Hotspot Therapeutics, Inc., priority 2022, published 2024).

Protein sequences, listed by entry. Tags and fused reporters are not part of them.
UniProt Q9UDY8, whole entry: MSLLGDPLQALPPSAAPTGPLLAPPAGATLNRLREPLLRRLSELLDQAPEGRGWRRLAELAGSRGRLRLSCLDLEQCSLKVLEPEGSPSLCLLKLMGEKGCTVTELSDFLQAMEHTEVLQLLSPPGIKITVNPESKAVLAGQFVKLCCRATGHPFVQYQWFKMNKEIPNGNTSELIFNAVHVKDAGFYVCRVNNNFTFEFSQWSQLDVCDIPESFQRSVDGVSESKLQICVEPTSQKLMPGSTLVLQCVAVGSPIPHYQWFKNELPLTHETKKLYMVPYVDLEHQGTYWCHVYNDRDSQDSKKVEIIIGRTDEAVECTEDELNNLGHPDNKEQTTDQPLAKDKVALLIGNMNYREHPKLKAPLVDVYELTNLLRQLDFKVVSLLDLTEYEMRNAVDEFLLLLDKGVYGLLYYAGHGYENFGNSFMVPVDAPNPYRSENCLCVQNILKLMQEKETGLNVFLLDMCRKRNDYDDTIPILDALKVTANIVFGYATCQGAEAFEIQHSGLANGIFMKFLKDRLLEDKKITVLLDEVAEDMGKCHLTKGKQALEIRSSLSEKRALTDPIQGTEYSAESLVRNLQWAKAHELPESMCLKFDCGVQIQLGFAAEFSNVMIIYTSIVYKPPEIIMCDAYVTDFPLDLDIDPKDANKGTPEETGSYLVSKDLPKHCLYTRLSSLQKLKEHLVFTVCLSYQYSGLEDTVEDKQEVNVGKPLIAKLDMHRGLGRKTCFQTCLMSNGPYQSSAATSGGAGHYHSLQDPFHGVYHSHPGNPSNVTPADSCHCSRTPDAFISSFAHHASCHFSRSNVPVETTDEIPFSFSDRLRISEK

Experiments:
[1] = tested on: NF-kB; assay: NF-kB reporter assay in Jurkat cells stimulated with aCD3/aCD28/PMA; format: cell-based; details: read-out: NF-kB Reporter Assay IC50, 1 hr compound incubation, aCD3/aCD28/PMA stimulation 4 hr, One-Glo readout
[2] = molecular target: MALT1 (Homo sapiens, UniProt Q9UDY8); assay: MALT-1 Fluorogenic Peptide Cleavage Assay (MALT1 inhibition assay); format: biochemical; details: read-out: MALT1 Inhibition IC50; Avi-tagged FL MALT-1, Ac-LRSR-AMC peptide substrate, 30 min pre-incubation, 90 min reaction
Experimental: Inhibition of MALT1 activity by the presence of small molecules was evaluated using MALT-1 Fluorogenic Peptide Cleavage Assay. The assay utilizes a quenched AMC-labelled peptide that contains the MALT-1 recognition sequence and cleavage site (LRSR). MALT-1 mediated cleavage of the peptide relieves the quenching and leads to an increase in fluorescence at excitation (342 nm) and emission (441 nm). The following reagents were obtained commercially and used to prepare standard reagent formulations as further described below: […] The standard reagent formulations used in this assay were prepared and stored as follows. A 1.1 M solution of sodium citrate (161.3 g, 500 mL) was prepared and stored at room temperature. A 10% (w/v) CHAPS solution (2.0 g, 20 mL) was prepared and stored at 4° C. A 500 mM HEPES solution having pH of 6.89 was prepared from 200 mL of a 1 M HEPES solution having a pH of 7.5 using concentrated hydrochloric acid and brought to a final volume of 400 mL with […]® H2O. […] The assay-ready plates were equilibrated to room temperature. […] Fluorescence intensity was determined using a CLARIOstar microplate reader (BMG LABTECH) using the optimised AMC mode. Before taking readings, a 70% gain was applied on the neutral control well. […] Compounds in which an IC50 was not measured are designated as “N/A”.

Cc1cc(-n2cc(C(F)(F)F)cn2)ncc1S(=O)(=O)Nc1cccc2cnn(C)c12
IC50 [1]: < 400 nM | IC50 [2]: > 2500 nM

Cc1nc(-n2cc(C(F)(F)F)cn2)ccc1S(=O)(=O)Nc1cccc2cnn(C)c12
IC50 [1]: < 400 nM | IC50 [2]: 400 to 1000 nM

The match of structure and compound is tentative.
